PubChem BioAssay AID1259405 – NCATS | 2018
In all, the deposit lists about 50,000 reagents; shown is a part drawn at random. About 4,000 of all reagents (8%) count as active. 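Mouse siRNA library applied to hamster cells; one well for each siRNA.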 A number with no mark means an inactive call. Reagents against one gene are numbered here.

- Purpose: 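Mouse-designed siRNAs used to find CHO productivity engineering targets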 (primary screen)
- Cells: Chinese hamster CHO-K1 ovary cells with stable secreted eGFP expression
- Knock-down reagent: single siRNA against mouse genes, 0.8 pmol siRNA per well (2 µl of 400 nM stock)
- Duration: 3 days
- Detection: 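Per-well intracellular GFP measured by laser scanning cytometry, plus viability from ATP luminescence, each relative to plate median of non-targeting control wells, in %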
- Reading the numbers: GFP, % of control: higher = more GFP per well, higher productivity; viability (ATP), % of control: higher = more viable cells (more ATP)
- Active means: 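a knock-down is called active if GFP reaches 120% or more of non-targeting control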

no.	gene knocked down	reagent	GFP, % of control	viability (ATP), % of control
1	Adh4 (alcohol dehydrogenase 4 (class II), pi polypeptide)	1	56.2	54.9
2	Adh4 (alcohol dehydrogenase 4 (class II), pi polypeptide)	2	80.4	72.8
3	Adh4 (alcohol dehydrogenase 4 (class II), pi polypeptide)	3	74.4	78.5
4	Unkl (unkempt family like zinc finger)	1	105	105
5	Unkl (unkempt family like zinc finger)	2	66.7	83.9
6	Unkl (unkempt family like zinc finger)	3	81.2	87
7	Slc25a3	1	124 (active)	84.4
8	Slc25a3	2	90.1	85.4
9	Slc25a3	3	43.6	66.2
10	Or4c108 (olfactory receptor family 4 subfamily C member 108)	1	72.5	62.3
11	Or4c108 (olfactory receptor family 4 subfamily C member 108)	2	35	62.8
12	Or4c108 (olfactory receptor family 4 subfamily C member 108)	3	66.5	80.2
13	Slc35a3	1	99.8	124
14	Slc35a3	2	72.5	89.6
15	Slc35a3	3	81.4	83.7
16	Tsn (translin)	1	99.3	85.5
17	Tsn (translin)	2	119	89.5
18	Rasa3 (RAS p21 protein activator 3)	1	81.3	81.5
19	Rasa3 (RAS p21 protein activator 3)	2	65.2	53.3
20	Rasa3 (RAS p21 protein activator 3)	3	78.3	62.1
21	Tceanc	1	78.9	102
22	Tceanc	2	66.4	51.2
23	Tceanc	3	107	102
24	Zfp27 (zinc finger protein 27)	1	69.5	99.7
25	Zfp27 (zinc finger protein 27)	2	74.5	86.1
26	Zfp27 (zinc finger protein 27)	3	103	89.6
27	Nol9 (nucleolar protein 9)	1	139 (active)	141
28	Nol9 (nucleolar protein 9)	2	81.1	63.2
29	Nol9 (nucleolar protein 9)	3	87.2	73.6
30	Zfp36l2 (zinc finger protein 36, C3H type-like 2)	1	136 (active)	101
31	Zfp36l2 (zinc finger protein 36, C3H type-like 2)	2	71.7	62.8
32	Klrg1 (killer cell lectin-like receptor subfamily G, member 1)	1	90.9	115
33	Klrg1 (killer cell lectin-like receptor subfamily G, member 1)	2	105	84.1
34	Irf7 (interferon regulatory factor 7)	1	78.6	45.6
35	Irf7 (interferon regulatory factor 7)	2	85	65.6
36	Irf7 (interferon regulatory factor 7)	3	83.6	89.7
37	Appbp2 (amyloid beta precursor protein binding protein 2)	1	70	51.8
38	Appbp2 (amyloid beta precursor protein binding protein 2)	2	73.8	65.3
39	Appbp2 (amyloid beta precursor protein binding protein 2)	3	107	71.9
40	Phf21a (PHD finger protein 21A)	1	99.7	93.1
41	Phf21a (PHD finger protein 21A)	2	82	44.6
42	Phf21a (PHD finger protein 21A)	3	153 (active)	76.3
43	Clec12a (C-type lectin domain family 12, member a)	1	43.4	43
44	Clec12a (C-type lectin domain family 12, member a)	2	67.4	79.9
45	Clec12a (C-type lectin domain family 12, member a)	3	78.6	48.2
46	Ccl4 (C-C motif chemokine ligand 4)	1	94.6	115
47	Ccl4 (C-C motif chemokine ligand 4)	2	38.1	60.8
48	Emb (embigin)	1	109	60.1
49	Emb (embigin)	2	61.1	86.2
50	Emb (embigin)	3	94.7	99.8
51	Slc6a19	1	61	38.7
52	Slc6a19	2	95	66.1
53	Slc6a19	3	97.5	98.5
54	Nphp1 (nephronophthisis 1 (juvenile) homolog (human))	1	37.7	98.3
55	Nphp1 (nephronophthisis 1 (juvenile) homolog (human))	2	63	80.9
56	Nphp1 (nephronophthisis 1 (juvenile) homolog (human))	3	100	118
57	Ddx4 (DEAD box helicase 4)	1	78.8	45.1
58	Ddx4 (DEAD box helicase 4)	2	59	58.8
59	Ddx4 (DEAD box helicase 4)	3	112	144
60	Uqcrq (ubiquinol-cytochrome c reductase, complex III subunit VII)	1	75.8	53.8
61	Uqcrq (ubiquinol-cytochrome c reductase, complex III subunit VII)	2	95.8	83.8
62	Uqcrq (ubiquinol-cytochrome c reductase, complex III subunit VII)	3	61.8	48
63	Hsdl1 (hydroxysteroid dehydrogenase like 1)	1	49.6	41.8
64	Hsdl1 (hydroxysteroid dehydrogenase like 1)	2	68.5	67.7
65	Hsdl1 (hydroxysteroid dehydrogenase like 1)	3	93.9	105
66	BC061195 (cDNA sequence BC061195)	1	115	133
67	BC061195 (cDNA sequence BC061195)	2	68.3	80.3
68	BC061195 (cDNA sequence BC061195)	3	46.3	21.8
69	Klhl15 (kelch-like 15)	1	72.3	79.6
70	Klhl15 (kelch-like 15)	2	80	78.2
71	Klhl15 (kelch-like 15)	3	90.9	45.6
72	Gm867 (predicted gene 867)	1	76.2	77.2
73	Gm867 (predicted gene 867)	2	133 (active)	95.5
74	Gm867 (predicted gene 867)	3	38.4	73.3
75	Srp19 (signal recognition particle 19)	1	71.1	68.4
76	Srp19 (signal recognition particle 19)	2	51.9	34.8
77	Srp19 (signal recognition particle 19)	3	87	44.6
78	Speer3 (spermatogenesis associated glutamate (E)-rich protein 3)	1	132 (active)	70.7
79	Speer3 (spermatogenesis associated glutamate (E)-rich protein 3)	2	98.6	102
80	Speer3 (spermatogenesis associated glutamate (E)-rich protein 3)	3	106	132
81	Itfg2 (integrin alpha FG-GAP repeat containing 2)	1	80.5	92.8
82	Itfg2 (integrin alpha FG-GAP repeat containing 2)	2	81.8	72.7
83	Itfg2 (integrin alpha FG-GAP repeat containing 2)	3	58.2	76.3
84	Apobec1	1	77.4	94.9
85	Apobec1	2	170 (active)	119
86	Apobec1	3	82.1	96.7
